Test results: patent US9937214B2, “Lactobacillus crispatus and application thereof” (priority 2013, dated 2018)
For at least one compound, name, drawing or mass did not settle the structure.

Tested on: Lactobacillus crispatus 262-1
Assay: Antibiotic sensitivity test, agar-diffusion paper-disc method
Format: cell-based
Settings: for Sensitivity determination: T0 generation, three levels: sensitivity, mediation, drug resistance, criteria of reference bacteria

Structure (SMILES)	Sensitivity determination	Sensitivity determination (listed as imipenem)	Sensitivity determination (passage stability test) (passage stability test, embodiment 6)	Sensitivity determination (listed as tetracycline)
C[C@@H](O)[C@H]1C(=O)N2C(C(=O)O)=C(SCCN=CN)C[C@H]12 [Imipenem]	Sensitivity	sensitivity		
NC[C@H]1O[C@H](O[C@H]2[C@H](O)[C@@H](O[C@H]3O[C@H](CO)[C@@H](O)[C@H](N)[C@H]3O)[C@H](N)C[C@@H]2N)[C@H](O)[C@@H](O)[C@@H]1O [Kanamycin]	drug resistance		drug resistance	
CN(C)[C@@H]1C(O)=C(C(N)=O)C(=O)[C@@]2(O)C(O)=C3C(=O)c4c(O)cccc4[C@@](C)(O)[C@H]3C[C@@H]12 [Tetracycline]	Sensitivity			sensitivity
